In article PMC8170369:
These are yes or no findings as the source states them, for the method shown. Binding seen in cells or lysates may run through a third protein. Some entries that bind do so weakly or less than the wild type.

The chains behind the UniProt entries cited, without tags or fusion partners. Where a name states a change or a piece, a line headed by the entry shows the natural chain unless it says otherwise. Residues count along the entry.
UniProt Q9NZQ7: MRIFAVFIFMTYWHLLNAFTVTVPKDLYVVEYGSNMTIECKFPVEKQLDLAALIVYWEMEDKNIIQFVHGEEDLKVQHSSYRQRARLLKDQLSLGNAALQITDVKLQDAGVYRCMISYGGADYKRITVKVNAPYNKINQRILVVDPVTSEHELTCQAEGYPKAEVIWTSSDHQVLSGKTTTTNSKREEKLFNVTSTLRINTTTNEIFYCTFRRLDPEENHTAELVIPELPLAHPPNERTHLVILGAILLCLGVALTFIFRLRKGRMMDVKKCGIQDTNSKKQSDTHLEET
PD-L1, transiently overexpressed in PC9ER cells (proximity ligation assay): residues 19-290 of Q9NZQ7
PD-L1-6aaDel: residues 19-284 of Q9NZQ7
UniProt P21333: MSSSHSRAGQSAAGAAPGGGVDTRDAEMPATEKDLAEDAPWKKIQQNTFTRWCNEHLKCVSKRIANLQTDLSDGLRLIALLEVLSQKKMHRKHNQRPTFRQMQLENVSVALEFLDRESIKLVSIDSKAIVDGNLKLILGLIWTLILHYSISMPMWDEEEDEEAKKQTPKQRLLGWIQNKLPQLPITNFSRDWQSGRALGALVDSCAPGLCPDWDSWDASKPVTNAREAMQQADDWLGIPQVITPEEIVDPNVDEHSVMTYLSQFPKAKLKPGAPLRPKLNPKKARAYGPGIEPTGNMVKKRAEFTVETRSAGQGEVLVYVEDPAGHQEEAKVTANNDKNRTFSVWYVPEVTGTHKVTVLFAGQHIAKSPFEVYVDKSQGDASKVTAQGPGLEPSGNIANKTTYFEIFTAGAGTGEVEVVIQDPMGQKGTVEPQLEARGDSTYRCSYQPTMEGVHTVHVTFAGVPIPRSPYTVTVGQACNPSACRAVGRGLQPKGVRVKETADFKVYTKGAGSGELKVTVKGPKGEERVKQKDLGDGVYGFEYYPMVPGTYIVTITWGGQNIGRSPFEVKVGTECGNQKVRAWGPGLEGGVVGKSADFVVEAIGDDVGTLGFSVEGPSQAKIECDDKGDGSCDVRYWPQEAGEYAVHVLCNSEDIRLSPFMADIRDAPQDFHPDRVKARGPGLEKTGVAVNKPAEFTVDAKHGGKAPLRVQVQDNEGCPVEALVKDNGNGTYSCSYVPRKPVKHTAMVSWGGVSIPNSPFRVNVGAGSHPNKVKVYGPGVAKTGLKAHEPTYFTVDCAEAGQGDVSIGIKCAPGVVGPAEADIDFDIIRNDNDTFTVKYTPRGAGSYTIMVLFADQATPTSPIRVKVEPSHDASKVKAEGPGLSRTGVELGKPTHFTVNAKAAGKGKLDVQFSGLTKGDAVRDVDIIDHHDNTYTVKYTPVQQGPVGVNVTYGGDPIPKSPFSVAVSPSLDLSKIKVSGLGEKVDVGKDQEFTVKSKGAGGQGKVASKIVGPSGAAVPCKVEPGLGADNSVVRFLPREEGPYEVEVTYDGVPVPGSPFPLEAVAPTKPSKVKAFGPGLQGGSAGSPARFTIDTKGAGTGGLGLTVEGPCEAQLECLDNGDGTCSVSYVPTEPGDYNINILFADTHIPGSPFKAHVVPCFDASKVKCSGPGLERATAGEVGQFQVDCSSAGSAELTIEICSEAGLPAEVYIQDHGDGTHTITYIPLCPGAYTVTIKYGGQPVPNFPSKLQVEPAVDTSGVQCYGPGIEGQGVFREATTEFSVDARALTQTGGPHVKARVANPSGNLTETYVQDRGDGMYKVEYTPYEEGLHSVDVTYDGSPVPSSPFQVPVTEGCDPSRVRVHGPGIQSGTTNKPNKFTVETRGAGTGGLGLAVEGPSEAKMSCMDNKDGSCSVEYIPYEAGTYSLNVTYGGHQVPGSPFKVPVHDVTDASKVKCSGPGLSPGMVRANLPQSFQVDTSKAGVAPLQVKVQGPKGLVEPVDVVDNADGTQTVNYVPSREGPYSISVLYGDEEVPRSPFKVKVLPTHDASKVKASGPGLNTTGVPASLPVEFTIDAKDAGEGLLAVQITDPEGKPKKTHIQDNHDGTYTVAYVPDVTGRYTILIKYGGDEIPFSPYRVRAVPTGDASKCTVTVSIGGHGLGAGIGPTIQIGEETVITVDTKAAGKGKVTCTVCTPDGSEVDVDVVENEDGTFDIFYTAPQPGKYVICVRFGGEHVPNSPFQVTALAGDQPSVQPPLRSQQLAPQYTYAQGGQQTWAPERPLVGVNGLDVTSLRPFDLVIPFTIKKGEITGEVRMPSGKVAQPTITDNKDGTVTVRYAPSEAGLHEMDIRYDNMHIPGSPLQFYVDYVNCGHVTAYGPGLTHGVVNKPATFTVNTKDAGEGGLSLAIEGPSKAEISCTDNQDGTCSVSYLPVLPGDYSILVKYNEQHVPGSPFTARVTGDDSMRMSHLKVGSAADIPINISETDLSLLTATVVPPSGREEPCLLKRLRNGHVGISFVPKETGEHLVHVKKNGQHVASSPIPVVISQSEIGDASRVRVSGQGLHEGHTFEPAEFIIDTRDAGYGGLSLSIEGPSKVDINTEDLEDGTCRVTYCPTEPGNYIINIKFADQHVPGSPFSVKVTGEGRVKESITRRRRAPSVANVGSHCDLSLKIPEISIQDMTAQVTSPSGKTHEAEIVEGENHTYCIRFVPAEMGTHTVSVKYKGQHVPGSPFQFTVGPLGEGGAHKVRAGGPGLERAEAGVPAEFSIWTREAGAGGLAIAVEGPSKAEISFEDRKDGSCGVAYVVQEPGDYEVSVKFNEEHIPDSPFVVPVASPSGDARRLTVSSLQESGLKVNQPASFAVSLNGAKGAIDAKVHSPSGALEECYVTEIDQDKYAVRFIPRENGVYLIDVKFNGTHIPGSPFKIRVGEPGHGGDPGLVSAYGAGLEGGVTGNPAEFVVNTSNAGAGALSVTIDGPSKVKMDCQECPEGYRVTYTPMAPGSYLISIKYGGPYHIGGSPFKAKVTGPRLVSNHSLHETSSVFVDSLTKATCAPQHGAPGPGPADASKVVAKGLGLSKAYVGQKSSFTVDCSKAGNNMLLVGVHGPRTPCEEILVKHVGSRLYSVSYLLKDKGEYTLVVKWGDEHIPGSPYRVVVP

Tests used:
[1] = molecular target: programmed death ligand 1 (PD-L1), endogenous in PC9ER cells (human (endogenous in PC9ER)) (UniProt Q9NZQ7); assay: co-IP; extracts of PC9ER cells precipitated with a control antibody or an antibody to PD-L1, blots for PLC-γ1, FLNA and PD-L1; mild lysis buffer (50 mM HEPES pH 7.5, 150 mM NaCl, 1% Triton X-100), 2 h at 4°C
[2] = molecular target: PD-L1 (full length), expressed in HEK293 cells (UniProt Q9NZQ7); assay: co-IP; HEK293 cells transfected with PD-L1 (full length), PD-L1-6aaDel or PD-L1-16aaDel; IP and IB, blots for PLC-γ1, PD-L1 and GAPDH
PD-L1-6aaDel = PD-L1-6aaDel (UniProt Q9NZQ7); assay: as above
[3] = molecular target: PD-L1, transiently overexpressed in PC9ER cells (proximity ligation assay) (UniProt Q9NZQ7); assay: proximity ligation; PC9ER cells transiently overexpressing PD-L1 and PLC-γ1, fixed, permeabilised, antibodies to PD-L1 and PLC-γ1, Duolink red; also with prestimulation by EGF (Figure S7B)

For “Filamin A (FLNA), endogenous in PC9ER cells (from UniProt P21333 1-2647)”, the binding [1] was “binds”.

B1: phospholipase C-γ1 (PLC-γ1), in cell extracts (enzyme, UniProt P19174 1-1290)
chain: MAGAASPCANGCGPGAPSDAEVLHLCRSLEVGTVMTLFYSKKSQRPERKTFQVKLETRQITWSRGADKIEGAIDIREIKEIRPGKTSRDFDRYQEDPAFRPDQSHCFVILYGMEFRLKTLSLQATSEDEVNMWIKGLTWLMEDTLQAPTPLQIERWLRKQFYSVDRNREDRISAKDLKNMLSQVNYRVPNMRFLRERLTDLEQRSGDITYGQFAQLYRSLMYSAQKTMDLPFLEASTLRAGERPELCRVSLPEFQQFLLDYQGELWAVDRLQVQEFMLSFLRDPLREIEEPYFFLDEFVTFLFSKENSVWNSQLDAVCPDTMNNPLSHYWISSSHNTYLTGDQFSSESSLEAYARCLRMGCRCIELDCWDGPDGMPVIYHGHTLTTKIKFSDVLHTIKEHAFVASEYPVILSIEDHCSIAQQRNMAQYFKKVLGDTLLTKPVEISADGLPSPNQLKRKILIKHKKLAEGSAYEEVPTSMMYSENDISNSIKNGILYLEDPVNHEWYPHYFVLTSSKIYYSEETSSDQGNEDEEEPKEVSSSTELHSNEKWFHGKLGAGRDGRHIAERLLTEYCIETGAPDGSFLVRESETFVGDYTLSFWRNGKVQHCRIHSRQDAGTPKFFLTDNLVFDSLYDLITHYQQVPLRCNEFEMRLSEPVPQTNAHESKEWYHASLTRAQAEHMLMRVPRDGAFLVRKRNEPNSYAISFRAEGKIKHCRVQQEGQTVMLGNSEFDSLVDLISYYEKHPLYRKMKLRYPINEEALEKIGTAEPDYGALYEGRNPGFYVEANPMPTFKCAVKALFDYKAQREDELTFIKSAIIQNVEKQEGGWWRGDYGGKKQLWFPSNYVEEMVNPVALEPEREHLDENSPLGDLLRGVLDVPACQIAIRPEGKNNRLFVFSISMASVAHWSLDVAADSQEELQDWVKKIREVAQTADARLTEGKIMERRKKIALELSELVVYCRPVPFDEEKIGTERACYRDMSSFPETKAEKYVNKAKGKKFLQYNRLQLSRIYPKGQRLDSSNYDPLPMWICGSQLVALNFQTPDKPMQMNQALFMTGRHCGYVLQPSTMRDEAFDPFDKSSLRGLEPCAISIEVLGARHLPKNGRGIVCPFVEIEVAGAEYDSTKQKTEFVVDNGLNPVWPAKPFHFQISNPEFAFLRFVVYEEDMFSDQNFLAQATFPVKGLKTGYRAVPLKNNYSEDLELASLLIKIDIFPAKENGDLSPFSGTSLRERGSDASGQLFHGRAREGSFESRYQQPFEDFRISQEHLADHFDSRERRAPRRTRVNGDNRL
B1 was tested, and the binding [2] was “binds”, the binding (PD-L1-6aaDel) was “binds” and the binding [1] was “binds”.

B2: PLC-γ1, transiently overexpressed in PC9ER cells (proximity ligation assay) (enzyme, UniProt P19174 1-1290)
chain: B1 chain
B2 was tested, and the binding [3] was “binds”.
